{
  "source": "the supplement of paper PMC8728848",
  "binders": {"B1": {"name": "Awp3 (Candida glabrata), B4UN32 (protein)", "chain": "MISFVTLLAILGLLSISWADQTVRSVAGDQRVTDPVIVGDNSILDYYGGSNYDFSNNFEIGRGTLYIGKESYFSSFQSAPTDVPNSFHLLIKNTNNLQNNGQFIIENIKRHANQCSNSSIQVFPINFQNDGEFEIISGGVEGRCCLPTSVIAPQNFLNNGKFYYKVLTDTGSIYSGSCMQNVDIGASTTTTVNNNLWEFTGSINAQINGAVSGAAQINLDGSNMFVNANTFSGQVVNLINGGSFLQTSDPLSNIVVINGLGTSDTGVTSIAVKGKGKSFTYNPSSGIVKLTTVEGKTYAYQIGCGYNTKKFITNNDSGASYESADNFFVLTYSEPYSPQTCQLENSSIFSSNFISTSTSSSSSSSSASSLPSSMSSSLPSSLSSSLSSSLSSSMSSSMSSLFIIPPPYTTTRSSGSSIIDTEIVSFYSTTDSPGHTITGTTTTTLYGPHTHSSVSTPSSSSESSTTSNSSIESSSLPHTSVSSTPESSITPSSNTISSSPTSDFSSVQSSSIMESSSVVASSSVINSSSIVDSSSSSASSLPSSMSSSLSSSMSSSLPSSMSSSLSSSLSSSLSSSMSSSMSSLFIIPPPYTTTRSSGSSIIDTEIVSFYSTTDSPGHTITGTTTTTLYGPHTHSSVSTPSSSSESSTTSNSSIESSSLPHTSVSSTPESSITPSSNTISSSPTSDFSSVQSSSIMESSSVVASSSVINSSSIVDSSSSSASSLPSSMPSSLPSSMSSSLSSSMSSSLSSSLSSSLSSSMSSSMSSLFIIPPPYTTTRSSGSSIIDTEIVSFYSTTDSPGHTITGTTTTTLYGPHTHSSVSTPSSSSESSTTSNSSIESSSLPHTSVSSTPESSITPSSNTISSSPTSDFSSVQSSSIMESSSVVASSSATQSSSVINSSSIVDSSSSSASSLPSSMPSSLPSSLSSSLSSSLSSSMSSSMSSLFIIPPPYTTTRSSGSSIIDTEIVSFYSTTDSPGHTITGTTTTTLYESSIYSSSSSTIQESELSNTSRTTMTSNSSVSISSTSSRSSFSNTKSSTIVISQSASLPDSKTDIILSTSSNIGYSSRSLLSDLGTSISDSDIHHSVLHSTESYSSNESGTNPFTSIASLSNFIPESSSHTSTALGSENSVISSDILTTMSHPVATNSGDKPTTPKRSEQVSTTMTSSGPTPDTSSFDTDGMSAYSRPEFTTNSLEVNKSSTSQLGNNKQTFSNLQLESTRPHSENEVDNNTRLLQSIQQSSTYGTNNVNPLSPTGSISIPLTEDGQGDNNNWNSPATNDLCTQISFNLTATTITVTDRITITDSIHDISSEVITSYIYQTIVDQKTVTQTVDGKSLANKMSSIPKPSSRSLIQPQPPVAIELQEGAASTSRVSLVSLFISIILVLL"}},
  "experiment_in_all_cases": "glycan array binding signal (z-score within array); higher = stronger binding",
  "conditions_in_all_cases": "glycan notation: IUPAC condensed, linker removed",
  "key": {"Fuc(a1-2)Gal": {"molecular_target": "Fuc(a1-2)Gal", "summary_of_the_method": "(§1)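 Glycan array binding is given as a within-array Z-score, which can be read as non-binding when negative. The arrays, 3228 of them, came from the Consortium for Functional Glycomics database and were retained only where the protein sequence was available. Z-scores were averaged across arrays of the same protein sequence at different concentrations or buffers and across linkers.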"}, "Fuc(a1-2)Gal(b1-3)GalNAc": {"molecular_target": "Fuc(a1-2)Gal(b1-3)GalNAc", "summary_of_the_method": "as §1"}, "[1]": {"molecular_target": "Fuc(a1-2)Gal(b1-3)GalNAc(a1-3)[Fuc(a1-2)]Gal(b1-4)Glc", "summary_of_the_method": "as §1"}, "[2]": {"molecular_target": "Fuc(a1-2)Gal(b1-3)GalNAc(a1-3)[Fuc(a1-2)]Gal(b1-4)GlcNAc", "summary_of_the_method": "as §1"}, "[3]": {"molecular_target": "Fuc(a1-2)Gal(b1-3)GalNAc(b1-3)Gal", "summary_of_the_method": "as §1"}, "[4]": {"molecular_target": "Fuc(a1-2)Gal(b1-3)GalNAc(b1-3)Gal(a1-4)Gal(b1-4)Glc", "summary_of_the_method": "as §1"}, "[5]": {"molecular_target": "Fuc(a1-2)Gal(b1-3)GalNAc(b1-4)[Neu5Ac(a2-3)]Gal(b1-4)Glc", "summary_of_the_method": "as §1"}, "Fuc(a1-2)Gal(b1-3)GlcNAc": {"molecular_target": "Fuc(a1-2)Gal(b1-3)GlcNAc", "summary_of_the_method": "as §1"}, "[6]": {"molecular_target": "Fuc(a1-2)Gal(b1-3)GlcNAc(b1-2)Man(a1-3)[Fuc(a1-2)Gal(b1-3)GlcNAc(b1-2)Man(a1-6)]Man(b1-4)GlcNAc(b1-4)GlcNAc", "summary_of_the_method": "as §1"}, "[7]": {"molecular_target": "Fuc(a1-2)Gal(b1-3)GlcNAc(b1-2)Man(a1-3)[Fuc(a1-2)Gal(b1-3)GlcNAc(b1-2)Man(a1-6)]Man(b1-4)GlcNAc(b1-4)[Fuc(a1-6)]GlcNAc", "summary_of_the_method": "as §1"}, "[8]": {"molecular_target": "Fuc(a1-2)Gal(b1-3)GlcNAc(b1-3)Gal(b1-4)Glc", "summary_of_the_method": "as §1"}, "[9]": {"molecular_target": "Fuc(a1-2)Gal(b1-3)GlcNAc(b1-3)GalNAc", "summary_of_the_method": "as §1"}, "[10]": {"molecular_target": "Fuc(a1-2)Gal(b1-3)GlcNAc(b1-3)[Fuc(a1-2)Gal(b1-3)GlcNAc(b1-6)]GalNAc", "summary_of_the_method": "as §1"}, "[11]": {"molecular_target": "Fuc(a1-2)Gal(b1-3)GlcNAc(b1-3)[Gal(b1-4)GlcNAc(b1-6)]Gal(b1-4)Glc", "summary_of_the_method": "as §1"}, "[12]": {"molecular_target": "Fuc(a1-2)Gal(b1-3)GlcNAc(b1-3)[Neu5Ac(a2-6)Gal(b1-4)GlcNAc(b1-6)]Gal(b1-4)Glc", "summary_of_the_method": "as §1"}, "[13]": {"molecular_target": "Fuc(a1-2)Gal(b1-3)GlcNAc6S", "summary_of_the_method": "as §1"}, "[14]": {"molecular_target": "Fuc(a1-2)Gal(b1-3)[Fuc(a1-4)]GlcNAc", "summary_of_the_method": "as §1"}, "[15]": {"molecular_target": "Fuc(a1-2)Gal(b1-3)[Fuc(a1-4)]GlcNAc(b1-2)Man(a1-3)[Fuc(a1-2)Gal(b1-3)[Fuc(a1-4)]GlcNAc(b1-2)Man(a1-3)]Man(b1-4)GlcNAc(b1-4)GlcNAc", "summary_of_the_method": "as §1"}, "[16]": {"molecular_target": "Fuc(a1-2)Gal(b1-3)[Fuc(a1-4)]GlcNAc(b1-2)Man(a1-3)[Fuc(a1-2)Gal(b1-3)[Fuc(a1-4)]GlcNAc(b1-2)Man(a1-6)]Man(b1-4)GlcNAc(b1-4)[Fuc(a1-6)]GlcNAc(b1-4)[Fuc(a1-6)]GlcNAc", "summary_of_the_method": "as §1"}, "[17]": {"molecular_target": "Fuc(a1-2)Gal(b1-3)[Fuc(a1-4)]GlcNAc(b1-3)[Fuc(a1-3)[Gal(b1-4)]GlcNAc(b1-6)]Gal(b1-4)Glc", "summary_of_the_method": "as §1"}, "[18]": {"molecular_target": "Fuc(a1-2)Gal(b1-3)[Fuc(a1-4)]GlcNAc(b1-3)[Gal(b1-4)GlcNAc(b1-6)]Gal(b1-4)Glc", "summary_of_the_method": "as §1"}, "Fuc(a1-2)Gal(b1-4)Glc": {"molecular_target": "Fuc(a1-2)Gal(b1-4)Glc", "summary_of_the_method": "as §1"}, "Fuc(a1-2)Gal(b1-4)Glc6S": {"molecular_target": "Fuc(a1-2)Gal(b1-4)Glc6S", "summary_of_the_method": "as §1"}, "Fuc(a1-2)Gal(b1-4)GlcNAc": {"molecular_target": "Fuc(a1-2)Gal(b1-4)GlcNAc", "summary_of_the_method": "as §1"}, "[19]": {"molecular_target": "Fuc(a1-2)Gal(b1-4)GlcNAc(b1-2)Man", "summary_of_the_method": "as §1"}, "[20]": {"molecular_target": "Fuc(a1-2)Gal(b1-4)GlcNAc(b1-2)Man(a1-3)[Fuc(a1-2)Gal(b1-4)GlcNAc(b1-2)Man(a1-6)]Man(b1-4)GlcNAc(b1-4)GlcNAc", "summary_of_the_method": "as §1"}, "[21]": {"molecular_target": "Fuc(a1-2)Gal(b1-4)GlcNAc(b1-2)Man(a1-3)[Fuc(a1-2)Gal(b1-4)GlcNAc(b1-2)Man(a1-6)]Man(b1-4)GlcNAc(b1-4)[Fuc(a1-6)]GlcNAc", "summary_of_the_method": "as §1"}, "[22]": {"molecular_target": "Fuc(a1-2)Gal(b1-4)GlcNAc(b1-2)[Fuc(a1-2)Gal(b1-4)GlcNAc(b1-4)]Man(a1-3)[Fuc(a1-2)Gal(b1-4)GlcNAc(b1-2)Man(a1-6)]Man(b1-4)GlcNAc(b1-4)GlcNAc", "summary_of_the_method": "as §1"}, "[23]": {"molecular_target": "Fuc(a1-2)Gal(b1-4)GlcNAc(b1-3)Gal(b1-4)GlcNAc", "summary_of_the_method": "as §1"}, "[24]": {"molecular_target": "Fuc(a1-2)Gal(b1-4)GlcNAc(b1-3)Gal(b1-4)GlcNAc(b1-2)Man(a1-3)[Fuc(a1-2)Gal(b1-4)GlcNAc(b1-3)Gal(b1-4)GlcNAc(b1-2)Man(a1-6)]Man(b1-4)GlcNAc(b1-4)GlcNAc", "summary_of_the_method": "as §1"}},
  "note": "Some of the results follow.",
  "data": [
    {"binder": "B1", "values": [
      {"measurement": "glycan array binding signal (z-score)", "setting": "Fuc(a1-2)Gal", "value": -0.283},
      {"measurement": "glycan array binding signal (z-score)", "setting": "Fuc(a1-2)Gal(b1-3)GalNAc", "value": 0.014},
      {"measurement": "glycan array binding signal (z-score)", "setting": "[1]", "value": -0.482},
      {"measurement": "glycan array binding signal (z-score)", "setting": "[2]", "value": -1.19},
      {"measurement": "glycan array binding signal (z-score)", "setting": "[3]", "value": -0.409},
      {"measurement": "glycan array binding signal (z-score)", "setting": "[4]", "value": 2.34},
      {"measurement": "glycan array binding signal (z-score)", "setting": "[5]", "value": 0.812},
      {"measurement": "glycan array binding signal (z-score)", "setting": "Fuc(a1-2)Gal(b1-3)GlcNAc", "value": -0.793},
      {"measurement": "glycan array binding signal (z-score)", "setting": "[6]", "value": -0.957},
      {"measurement": "glycan array binding signal (z-score)", "setting": "[7]", "value": 1.49},
      {"measurement": "glycan array binding signal (z-score)", "setting": "[8]", "value": 0.58},
      {"measurement": "glycan array binding signal (z-score)", "setting": "[9]", "value": 0.005},
      {"measurement": "glycan array binding signal (z-score)", "setting": "[10]", "value": -0.693},
      {"measurement": "glycan array binding signal (z-score)", "setting": "[11]", "value": 0.739},
      {"measurement": "glycan array binding signal (z-score)", "setting": "[12]", "value": -0.792},
      {"measurement": "glycan array binding signal (z-score)", "setting": "[13]", "value": 0.811},
      {"measurement": "glycan array binding signal (z-score)", "setting": "[14]", "value": 0.827},
      {"measurement": "glycan array binding signal (z-score)", "setting": "[15]", "value": -0.701},
      {"measurement": "glycan array binding signal (z-score)", "setting": "[16]", "value": 0.156},
      {"measurement": "glycan array binding signal (z-score)", "setting": "[17]", "value": 0.791},
      {"measurement": "glycan array binding signal (z-score)", "setting": "[18]", "value": -0.557},
      {"measurement": "glycan array binding signal (z-score)", "setting": "Fuc(a1-2)Gal(b1-4)Glc", "value": 0.484},
      {"measurement": "glycan array binding signal (z-score)", "setting": "Fuc(a1-2)Gal(b1-4)Glc6S", "value": -0.996},
      {"measurement": "glycan array binding signal (z-score)", "setting": "Fuc(a1-2)Gal(b1-4)GlcNAc", "value": -0.106},
      {"measurement": "glycan array binding signal (z-score)", "setting": "[19]", "value": -0.5},
      {"measurement": "glycan array binding signal (z-score)", "setting": "[20]", "value": -1.06},
      {"measurement": "glycan array binding signal (z-score)", "setting": "[21]", "value": 0.401},
      {"measurement": "glycan array binding signal (z-score)", "setting": "[22]", "value": 3.23},
      {"measurement": "glycan array binding signal (z-score)", "setting": "[23]", "value": -1.23},
      {"measurement": "glycan array binding signal (z-score)", "setting": "[24]", "value": -1.57}
    ]}
  ]
}
